Test results reported in PMC6021487.

Assays:
[1] = target: T1, HA-PTRF (polymerase I and transcript release factor), wild type (UniProt O54724); experiment: co-IP; transfected 16HBE cells, 48 h after transfection; lysed in RIPA buffer (50 mM Tris-HCl pH 7.5, 135 mM NaCl, 1% NP-40, 0.5% sodium DOC, 1 mM EDTA, 10% glycerol); whole cell lysates immunoprecipitated with anti-HA or anti-Flag antibody on protein A/G-agarose beads at 4°C; immunoblot
T1 sequence: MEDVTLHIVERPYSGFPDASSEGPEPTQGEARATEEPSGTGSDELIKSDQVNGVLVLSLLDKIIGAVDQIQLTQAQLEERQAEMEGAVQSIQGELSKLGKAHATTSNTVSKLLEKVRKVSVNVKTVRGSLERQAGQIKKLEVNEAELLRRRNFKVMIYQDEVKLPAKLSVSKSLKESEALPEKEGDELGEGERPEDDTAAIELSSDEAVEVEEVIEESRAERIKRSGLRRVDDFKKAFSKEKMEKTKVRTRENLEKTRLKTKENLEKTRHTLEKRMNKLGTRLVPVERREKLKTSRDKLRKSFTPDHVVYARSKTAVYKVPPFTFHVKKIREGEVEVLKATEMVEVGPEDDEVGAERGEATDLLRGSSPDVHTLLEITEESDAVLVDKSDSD

PTRF Y158F mutant = target: T2, PTRF Y158F mutant (UniProt O54724); experiment: as above
T2 sequence: T1 sequence with Y158F

- binding [1]: binds
- binding (PTRF Y158F mutant): binds
Substance: Flag-IL-33

Residue numbers refer to the chain shown, from its start. Results are given in words; binding and its absence hold for the method and conditions named. Binding seen in cells or lysates may run through a third protein. Binding can be weak; no strength is given. For some assays here: Where a sequence is shown, tags or fusion partners need not be part of it.
